The text below walks through data of patent US4481139A (Board of Regents, The University of Texas System, priority 1983, dated 1984).

Some peptides are written in HELM: one residue between dots, names in brackets for other building blocks, links after the first $.

One data set in a line: general procedure: Boc solid-phase peptide synthesis; DCC. Conditions: whole synthesis, HPLC.
In the case of “PEPTIDE1{R.P.K.P.Q.Q.[dW].F.[dW].L.L.[am]}$$$$V2.0”, the “purity (crude or final not stated)” value is 97%.
Same read-out and setting: for “PEPTIDE1{R.[dP].K.P.Q.Q.[dW].F.[dW].L.L.[am]}$$$$V2.0” the value was 95%; for “PEPTIDE1{[dR].P.K.P.Q.Q.[dW].F.[dW].L.L.[am]}$$$$V2.0”, 98%; for “PEPTIDE1{[dR].[dP].K.P.Q.Q.[dW].F.[dW].L.L.[am]}$$$$V2.0”, 96%.
Turning to “PEPTIDE1{[dR].[dP].K.P.Q.Q.[dW].F.[dW].L.T.[am]}$$$$V2.0”, the “purity (crude or final not stated)” value is recorded as 96%.
Still for that read-out and setting: for “PEPTIDE1{[dR].[dP].K.P.[dF].Q.[dW].F.[dW].L.L.[am]}$$$$V2.0” the value was 97%; for [D-Arg^1,D-Trp^7 ,D-Trp^9,Ile^11 ]--SP, 97%; for “[D-Phe^5,D-Trp^7,D-Trp^9,Leu^11 ]-SP5-11”, 98%.

The nature of another data set: general procedure: Boc solid-phase peptide synthesis; amine resin, 0.75 mM NH2/g; DCC. Particulars: whole synthesis, 206 nm, scale of the general procedure 1 g resin.
With “PEPTIDE1{[dR].P.K.P.Q.Q.[dW].F.[dW].L.L.[am]}$$$$V2.0”, the “final HPLC purity” value turned out to be 98%.
